{"source": "patent US20240299385A1", "about": "(ReWind Therapeutics NV, priority 2021, published 2024)", "origin": "cited, not measured here", "system": "cysteinyl leukotriene receptors", "conditions": "selectivity versus GPR17, background statement; cited from earlier work", "note": "For at least one compound, name, drawing or mass did not settle the structure."}
{"smiles": "O=C(Nc1cccc2c(=O)cc(-c3nnn[nH]3)oc12)c1ccc(OCCCCc2ccccc2)cc1", "note": "[pranlukast]", "values": [{"measurement": "fold more potent as an inhibitor of cysteinyl leukotriene receptors", "value": "approximately 1,000 fold"}]}
